Cell number after 72 h of treatment

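Human melanoma cell lines in 1,536-well plates were treated with a pair of drugs for 72 h, then fixed, stained and imaged. Values are the number of DAPI-stained nuclei as a percentage of the DMSO control: 100 is no effect, lower means fewer cells. Every drug was used at one fixed concentration, the higher of two screened. These are primary screening values without error estimates.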
This is part of the screen, not chosen by result.

All values are for the listed drug together with AZD7762 (0.1 µM): NC(=O)Nc1cc(-c2cccc(F)c2)sc1C(=O)N[C@H]1CCCNC1

C[C@@H]1CCN(C(=O)CC#N)C[C@@H]1N(C)c1ncnc2[nH]ccc12 at 5 µM gave WM451Lu: 91.0; WM3619: 29.0.
C=CCn1c(=O)c2cnc(Nc3ccc(N4CCN(C)CC4)cc3)nc2n1-c1cccc(C(C)(C)O)n1 at 0.1 µM gave WM451Lu: 31.6; WM3619: 16.7.
CO[C@@H]1[C@H](N(C)C(=O)c2ccccc2)C[C@H]2O[C@]1(C)n1c3ccccc3c3c4c(c5c6ccccc6n2c5c31)C(=O)NC4 at 0.4 µM gave WM451Lu: 73.9; WM3619: 22.6.
COc1cc2c(Oc3ccc4[nH]c(C)cc4c3F)ncnc2cc1OCCCN1CCCC1 at 2 µM gave WM451Lu: 71.2; WM3619: 15.5.
N.N.[Cl][Pt][Cl] at 8 µM gave WM451Lu: 62.7; WM3619: 21.8.
COc1ccc2c(c1)CCC1C2CCC2(C)C(NCCCCCCN3C(=O)C=CC3=O)CCC12 (stereo not drawn) at 2 µM gave WM451Lu: 104; WM3619: 56.0.
CN(c1ncccc1CNc1nc(Nc2ccc3c(c2)CC(=O)N3)ncc1C(F)(F)F)S(C)(=O)=O at 0.4 µM gave WM451Lu: 79.0; WM3619: 38.5.
N#Cc1c(O)c2c(-c3ccc(-c4ccccc4O)cc3)csc2[nH]c1=O at 10 µM gave WM451Lu: 96.2; WM3619: 18.9.
CN(NC(=O)CC(=O)NN(C)C(=S)c1ccccc1)C(=S)c1ccccc1 at 0.03 µM gave WM451Lu: 75.6; WM3619: 4.2.
CCN(CC)CCNC(=O)c1c(C)[nH]c(/C=C2\C(=O)Nc3ccc(F)cc32)c1C at 2 µM gave WM451Lu: 50.8; WM3619: 18.1.
Cc1cc(Nc2cc(N3CCN(C)CC3)nc(/C=C/c3ccccc3)n2)n[nH]1 at 0.2 µM gave WM451Lu: 81.6; WM3619: 23.8.
CN(C)S(=O)(=O)c1ccc2c(c1)/C(=C/c1cc3c([nH]1)CCCC3)C(=O)N2 at 2 µM gave WM451Lu: 57.4; WM3619: 19.3.
CC1(C)NC(=O)N(c2ccc([N+](=O)[O-])c(C(F)(F)F)c2)C1=O at 5 µM gave WM451Lu: 86.6; WM3619: 22.8.
Cc1ccc(Nc2nccc(N(C)c3ccc4c(C)n(C)nc4c3)n2)cc1S(N)(=O)=O at 2 µM gave WM451Lu: 96.0; WM3619: 32.5.
CCCCCCCCCCCC1=C(O)C(=O)C=C(O)C1=O at 6 µM gave WM451Lu: 20.3; WM3619: 18.3.
COc1cc(N2CCC(N3CCN(C)CC3)CC2)ccc1Nc1ncc(Cl)c(Nc2ccccc2S(=O)(=O)C(C)C)n1 at 0.4 µM gave WM451Lu: 59.7; WM3619: 14.8.
COC(=O)c1sccc1S(=O)(=O)Nc1ccc(Nc2ccccc2)cc1OC at 5 µM gave WM451Lu: 90.2; WM3619: 18.6.
Cn1cnc2c(F)c(Nc3ccc(Br)cc3Cl)c(C(=O)NOCCO)cc21 at 0.075 µM gave WM451Lu: 58.3; WM3619: 29.9.
CC1(C)CCC(c2ccc(Cl)cc2)=C(CN2CCN(c3ccc(C(=O)NS(=O)(=O)c4ccc(N[C@H](CCN5CCOCC5)CSc5ccccc5)c(S(=O)(=O)C(F)(F)F)c4)cc3)CC2)C1 at 2 µM gave WM451Lu: 75.2; WM3619: 13.4.
CS(=O)(=O)CCNCc1ccc(-c2ccc3ncnc(Nc4ccc(OCc5cccc(F)c5)c(Cl)c4)c3c2)o1 at 4 µM gave WM451Lu: 100; WM3619: 58.5.
Cn1c(Nc2ccc(C(F)(F)F)cc2)nc2cc(Oc3ccnc(-c4ncc(C(F)(F)F)[nH]4)c3)ccc21 at 0.4 µM gave WM451Lu: 40.5; WM3619: 32.0.
C[C@@H](Oc1cc(-c2cnn(C3CCNCC3)c2)cnc1N)c1c(Cl)ccc(F)c1Cl at 1 µM gave WM451Lu: 83.3; WM3619: 25.5.
Cn1cc(/C=C2\C(=O)Nc3cccnc32)c2ccccc21 at 2 µM gave WM451Lu: 97.6; WM3619: 41.3.
O=c1[nH]nc(Sc2ncc([N+](=O)[O-])s2)n1-c1ccc2c(c1)OCCO2 at 1 µM gave WM451Lu: 68.8; WM3619: 21.0.
Cc1cn(-c2cc(NC(=O)c3ccc(C)c(Nc4nccc(-c5cccnc5)n4)c3)cc(C(F)(F)F)c2)cn1 at 1 µM gave WM451Lu: 74.9; WM3619: 35.8.
Cc1cc([N+](=O)[O-])ccc1NS(=O)(=O)c1cc(Cl)ccc1Cl at 5 µM gave WM451Lu: 84.2; WM3619: 14.7.
Cn1cc(C2=C(c3cn(C4CCN(Cc5ccccn5)CC4)c4ccccc34)C(=O)NC2=O)c2ccccc21 at 4 µM gave WM451Lu: 74.1; WM3619: 21.0.
O=C(/C=C/c1cccnc1)NCCCCC1CCN(C(=O)c2ccccc2)CC1 at 0.05 µM gave WM451Lu: 81.1; WM3619: 17.9.
Nc1nc(F)nc2c1ncn2[C@@H]1O[C@H](CO)[C@@H](O)[C@@H]1O at 1 µM gave WM451Lu: 62.5; WM3619: 12.5.
CCc1ccc(CCOc2ccc(CC3SC(=O)NC3=O)cc2)nc1 (stereo not drawn) at 10 µM gave WM451Lu: 89.3; WM3619: 19.5.
CC(C)CCN1c2nc(Nc3cc(F)c(O)c(F)c3)ncc2N(C)C(=O)C1C (stereo not drawn) at 1 µM gave WM451Lu: 77.2; WM3619: 29.6.
COc1ccc(-c2ccc3c(N4CCOCC4)nc(N4C[C@@H](C)O[C@@H](C)C4)nc3n2)cc1CO at 0.1 µM gave WM451Lu: 60.0; WM3619: 21.5.
CNC(=O)c1cc(Oc2ccc(NC(=O)Nc3ccc(Cl)c(C(F)(F)F)c3)cc2)ccn1 at 2 µM gave WM451Lu: 80.4; WM3619: 24.5.
O=C(Oc1ccc([N+](=O)[O-])cc1)N1CCC(C(O)(c2ccc3c(c2)OCO3)c2ccc3c(c2)OCO3)CC1 at 5 µM gave WM451Lu: 82.3; WM3619: 25.3.
O=C(O)c1ccc(-c2c[nH]c3ncc(-c4ccccc4)cc23)cc1C1CCCC1 at 0.8 µM gave WM451Lu: 86.4; WM3619: 32.5.
COc1ccc(COc2ccc(Cc3cnc(N)nc3N)cc2OC)cc1 at 5 µM gave WM451Lu: 70.7; WM3619: 17.2.
C[C@]1(c2nc3c(C(N)=O)cccc3[nH]2)CCCN1 at 7 µM gave WM451Lu: 78.9; WM3619: 15.1.
Cc1cc(SCc2sc(-c3ccc(C(F)(F)F)c(F)c3)nc2C)ccc1OCC(=O)O at 10 µM gave WM451Lu: 83.7; WM3619: 13.3.
O=c1cc(-c2cccc3c2Sc2ccccc2S3)oc(N2CCOCC2)c1 at 5 µM gave WM451Lu: 82.8; WM3619: 19.9.
Cc1ccc(NC(=O)c2cccc(N(C)C)c2)cc1NC(=O)c1ccc(O)cc1 at 10 µM gave WM451Lu: 79.9; WM3619: 22.2.

Repeated from the top, 4 entries:

Partner	WM451Lu	WM3619
C[C@@H]1CCN(C(=O)CC#N)C[C@@H]1N(C)c1ncnc2[nH]ccc12 at 5 µM	91.0	29.0
C=CCn1c(=O)c2cnc(Nc3ccc(N4CCN(C)CC4)cc3)nc2n1-c1cccc(C(C)(C)O)n1 at 0.1 µM	31.6	16.7
CO[C@@H]1[C@H](N(C)C(=O)c2ccccc2)C[C@H]2O[C@]1(C)n1c3ccccc3c3c4c(c5c6ccccc6n2c5c31)C(=O)NC4 at 0.4 µM	73.9	22.6
COc1cc2c(Oc3ccc4[nH]c(C)cc4c3F)ncnc2cc1OCCCN1CCCC1 at 2 µM	71.2	15.5

From a melanoma drug combination screen (doi:10.1371/journal.pone.0140310); values rounded.